Measurements reported in PubChem BioAssay AID1259254 (NCATS, 2017).
In all, the deposit lists about 59,000 reagents; shown is a part drawn at random. About 1,550 of them (2.6%) count as active. 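G2 share is only a proxy for re-replication; each gene was hit by three separate siRNAs, and active genes were retested.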 The numbers tell different reagents against one gene apart. Not all columns of the deposit are shown. Reagent sequences are not shown. Not given: the amount of reagent.

Screen: 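Gene knock-downs that lead to re-replication, shown by excess G2 DNA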 (primary screen)
Cells: human HCT116 colorectal cancer cells
Reagent: single siRNA against human genes
Timing: 3 days
Detection: 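Imaged Hoechst DNA stain sorts each cell into a cycle phase by DNA amount; per plate, G2 fraction set to 0% for non-targeting and 100% for GMNN siRNA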
Reading the numbers: G2 robust z-score: higher = more G2 cells, more excess DNA replication
Active means: 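Active siRNAs have a G2 robust z of 5 or more median absolute deviations over the median, which in these data means about 38% or higher of GMNN control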

The first 2 records, ahead of the listing:
SORBS2 #1 | G2 robust z-score: -0.921; Call: inactive
SORBS2 #2 | G2 robust z-score: 0.445; Call: inactive

The list itself, repeating the preview:
SORBS2 #1 | G2 robust z-score: -0.921; Call: inactive
SORBS2 #2 | G2 robust z-score: 0.445; Call: inactive
SORBS2 #3 | G2 robust z-score: 2.62; Call: inactive
QTRT2 #1 | G2 robust z-score: 1.1; Call: inactive
QTRT2 #2 | G2 robust z-score: -1.31; Call: inactive
QTRT2 #3 | G2 robust z-score: 0.0656; Call: inactive
NUDT3 #1 | G2 robust z-score: -1.29; Call: inactive
NUDT3 #2 | G2 robust z-score: -0.401; Call: inactive
NUDT3 #3 | G2 robust z-score: -0.299; Call: inactive
AGO3 #1 | G2 robust z-score: -1.23; Call: inactive
AGO3 #2 | G2 robust z-score: 4.34; Call: inactive
AGO3 #3 | G2 robust z-score: 0.756; Call: inactive
